Assay results

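Genome-wide siRNA knockdown in TC32 Ewing sarcoma cells, comparing luciferase light from an NR0B1-promoter reporter with a CMV-promoter reporter 48 hours after transfection. Each siRNA was applied at 20 nM. A z-score of the log NR0B1-over-CMV signal, less the median of siRNAs with the same seed; more negative means a stronger specific loss of the NR0B1 reporter.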

The strongest results of the screen are mostly left out here. Sequences are the guide (antisense) strand, without overhang.

With AGAUGGACGAGCAAAUUCC against TDGF1 the assay gave seed-corrected z-score 0.7573. UCUCAUCCAAUUGCCGACG against TSGA10 gave seed-corrected z-score -0.5324. Result for UUUUAUCUCUGGAUUAGUC against JAML was seed-corrected z-score 0.371. Result for UUUGUUUGUGAGUAAUACC against IL1RL1 was seed-corrected z-score 0.9793. UUCGCUUCUCGAAAGAGCC against MMP15 read seed-corrected z-score 0.206. UUCGGAGAUAGGAAGACGC against ZSWIM5 read seed-corrected z-score -0.6251.

For UGAGGUGUUGUCGCAAAGC against ANKRD50 the result was seed-corrected z-score -0.9431. With UUAGUCACUAGGUAGCCGG against PCDHGB6 the assay gave seed-corrected z-score 0.3397. With UUCUGUCCCAUAGACAUGG against MAGEE1 the assay gave seed-corrected z-score -0.5487. Result for UUUGUUAGUAUAUAGAGAG against BBS5 was seed-corrected z-score 0.6451. With AAUCGAAUCUGUUUGAGAC against TRAPPC11 the assay gave seed-corrected z-score -0.3734. With UCUUGCAUCAGAGUAACCA against MYH1 the assay gave seed-corrected z-score -0.05764.

UCAGUAAGUUGAGAAGAUC against ZNF266 read seed-corrected z-score -0.1408. UUAGGUAGGGCGUGUAAUC against RUNDC3A gave seed-corrected z-score 1.164. UAGUUGUUGAUGGAUUCCC against ZCCHC2 gave seed-corrected z-score -1.538. UUCGAUGAAGACCACAGCC against TPCN2 gave seed-corrected z-score 0.05413. UUACUUCCCUGCAUUCUGG against APOH read seed-corrected z-score 0.2458. For UUAAUUAGGAGCAAUAAGA against IER3 the result was seed-corrected z-score 0.4148.

Result for UACCGUUCCAGCACUAGGU against GPR119 was seed-corrected z-score 0.1131. With UUCUGUUCCUGCAUGUCCU against RNF40 the assay gave seed-corrected z-score -0.8064. UCUCUUACCACCAGUGUGG against IGSF6 read seed-corrected z-score -0.09716. Result for UGGGAUAUUAAUGCGGCUG against FAM104B was seed-corrected z-score -0.2589. With UUAGCAGAAAUCGGUACCU against HOXB8 the assay gave seed-corrected z-score 1.216. UUCUUUGUACCCAAAGGGC against MIEN1 read seed-corrected z-score -1.96.

UUUCCUUUUACAAUGGUCU against LYZL4 read seed-corrected z-score -0.9826. For UUUCAGUUCAUCCGACUUC against LEKR1 the result was seed-corrected z-score 0.4762. AUGUCAUCCAUCAUGAACC against C16orf45 gave seed-corrected z-score -0.2247. Result for UACGUAAGUACUGUAAUGC against BTAF1 was seed-corrected z-score -0.7021. With UUUACGACUAUCCAGAUAC against SYPL1 the assay gave seed-corrected z-score -0.2084. For UUCUUUACUACUUGGGCGG against ADCY3 the result was seed-corrected z-score 0.7904.

With AUUCAUACUGUUGAGUUUC against AMBN the assay gave seed-corrected z-score 0.1099. AGUAAAACCAGGAUAGGUC against TBXAS1 gave seed-corrected z-score 0.04672. AACUUUUCCAGGGUUAUUC against ASCL3 read seed-corrected z-score -0.3422. With AGAAAAGCCGCUUGGACCC against ADRM1 the assay gave seed-corrected z-score 0.459. With UCUGAUUGAAGCUCAAGUC against LUM the assay gave seed-corrected z-score -1.413. AUAGUUGUCGUCCAGACCU against MST1 read seed-corrected z-score -1.649.

AAACAGAUCAGUGGGCUGC against TMEM74B gave seed-corrected z-score -1.026. UCUUGAGUCAUACUUUACC against TIGAR gave seed-corrected z-score 0.142. Result for UACCUGACGAUCACCCAGG against GIPR was seed-corrected z-score -0.06386. UCCAUUAAAAGACACUUCG against ZC3H18-AS1 read seed-corrected z-score 0.04776.

5 of the entries, repeated:

| Sequence | target gene | seed-corrected z-score |
|---|---|---|
| `UUAGGUAGGGCGUGUAAUC` | RUNDC3A | 1.164 |
| `UCUGAUUGAAGCUCAAGUC` | LUM | -1.413 |
| `UUCGAUGAAGACCACAGCC` | TPCN2 | 0.05413 |
| `AACUUUUCCAGGGUUAUUC` | ASCL3 | -0.3422 |
| `AUGUCAUCCAUCAUGAACC` | C16orf45 | -0.2247 |

From PubChem BioAssay record AID1159506 (NCATS, 2015).